{"source": "the supplement of paper PMC8728848", "assay_in_all_cases": "glycan array binding signal (z-score within array); higher = stronger binding", "conditions_in_all_cases": "glycan notation: IUPAC condensed, linker removed", "key": {"[1]": {"target": "GlcNAc(b1-3)Gal(b1-4)GlcNAc(b1-3)Gal(b1-4)GlcNAc(b1-2)Man(a1-3)[GlcNAc(b1-3)Gal(b1-4)GlcNAc(b1-3)Gal(b1-4)GlcNAc(b1-2)Man(a1-6)]Man(b1-4)GlcNAc(b1-4)[Fuc(a1-6)]GlcNAc", "how_it_was_run": "(§1)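 Glycan array data were curated from 3228 arrays in the Consortium for Functional Glycomics database and kept only where the protein sequence was available. Glycan names were converted to IUPAC-condensed notation, and columns mapping to the same glycan were averaged. The binding signal is a within-array Z-score, averaged across arrays of the same protein sequence at different concentrations or buffers and across linkers. Negative Z-scores can be read as non-binding.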"}, "[2]": {"target": "GlcNAc(b1-3)Gal(b1-4)GlcNAc(b1-3)Gal(b1-4)GlcNAc(b1-2)[GlcNAc(b1-3)Gal(b1-4)GlcNAc(b1-3)Gal(b1-4)GlcNAc(b1-6)]Man(a1-6)[GlcNAc(b1-3)Gal(b1-4)GlcNAc(b1-3)Gal(b1-4)GlcNAc(b1-2)Man(a1-3)]Man(b1-4)GlcNAc(b1-4)[Fuc(a1-6)]GlcNAc", "how_it_was_run": "as §1"}, "[3]": {"target": "GlcNAc(b1-3)Gal(b1-4)GlcNAc(b1-3)Gal(b1-4)GlcNAc(b1-3)Gal(b1-4)GlcNAc(b1-2)Man(a1-3)[GlcNAc(b1-3)Gal(b1-4)GlcNAc(b1-3)Gal(b1-4)GlcNAc(b1-3)Gal(b1-4)GlcNAc(b1-2)Man(a1-6)]Man(b1-4)GlcNAc(b1-4)GlcNAc", "how_it_was_run": "as §1"}, "[4]": {"target": "GlcNAc(b1-3)Gal(b1-4)GlcNAc(b1-3)Gal(b1-4)GlcNAc(b1-3)Gal(b1-4)GlcNAc(b1-2)Man(a1-3)[GlcNAc(b1-3)Gal(b1-4)GlcNAc(b1-3)Gal(b1-4)GlcNAc(b1-3)Gal(b1-4)GlcNAc(b1-2)Man(a1-6)]Man(b1-4)GlcNAc(b1-4)[Fuc(a1-6)]GlcNAc", "how_it_was_run": "as §1"}, "[5]": {"target": "GlcNAc(b1-3)Gal(b1-4)GlcNAc(b1-3)Gal(b1-4)GlcNAc(b1-3)Gal(b1-4)GlcNAc(b1-2)[GlcNAc(b1-3)Gal(b1-4)GlcNAc(b1-3)Gal(b1-4)GlcNAc(b1-3)Gal(b1-4)GlcNAc(b1-6)]Man(a1-6)[GlcNAc(b1-3)Gal(b1-4)GlcNAc(b1-3)Gal(b1-4)GlcNAc(b1-3)Gal(b1-4)GlcNAc(b1-2)Man(a1-3)]Man(b1-4)GlcNAc(b1-4)[Fuc(a1-6)]GlcNAc", "how_it_was_run": "as §1"}, "[6]": {"target": "GlcNAc(b1-3)Gal(b1-4)GlcNAc(b1-3)Gal(b1-4)GlcNAc(b1-3)Gal(b1-4)GlcNAc(b1-3)Gal(b1-4)GlcNAc(b1-2)Man(a1-3)[GlcNAc(b1-3)Gal(b1-4)GlcNAc(b1-3)Gal(b1-4)GlcNAc(b1-3)Gal(b1-4)GlcNAc(b1-3)Gal(b1-4)GlcNAc(b1-2)Man(a1-6)]Man(b1-4)GlcNAc(b1-4)GlcNAc", "how_it_was_run": "as §1"}, "[7]": {"target": "GlcNAc(b1-3)Gal(b1-4)GlcNAc(b1-3)Gal(b1-4)GlcNAc(b1-3)Gal(b1-4)GlcNAc(b1-3)Gal(b1-4)GlcNAc(b1-2)Man(a1-3)[GlcNAc(b1-3)Gal(b1-4)GlcNAc(b1-3)Gal(b1-4)GlcNAc(b1-3)Gal(b1-4)GlcNAc(b1-3)Gal(b1-4)GlcNAc(b1-2)Man(a1-6)]Man(b1-4)GlcNAc(b1-4)[Fuc(a1-6)]GlcNAc", "how_it_was_run": "as §1"}, "[8]": {"target": "GlcNAc(b1-3)Gal(b1-4)GlcNAc(b1-3)Gal(b1-4)GlcNAc(b1-3)Gal(b1-4)GlcNAc(b1-3)Gal(b1-4)GlcNAc(b1-2)[GlcNAc(b1-3)Gal(b1-4)GlcNAc(b1-3)Gal(b1-4)GlcNAc(b1-3)Gal(b1-4)GlcNAc(b1-3)Gal(b1-4)GlcNAc(b1-6)]Man(a1-6)[GlcNAc(b1-3)Gal(b1-4)GlcNAc(b1-3)Gal(b1-4)GlcNAc(b1-3)Gal(b1-4)GlcNAc(b1-3)Gal(b1-4)GlcNAc(b1-2)Man(a1-3)]Man(b1-4)GlcNAc(b1-4)[Fuc(a1-6)]GlcNAc", "how_it_was_run": "as §1"}, "[9]": {"target": "GlcNAc(b1-3)Gal(b1-4)GlcNAc(b1-3)Gal(b1-4)GlcNAc(b1-3)GalNAc", "how_it_was_run": "as §1"}, "[10]": {"target": "GlcNAc(b1-3)Gal(b1-4)GlcNAc(b1-3)GalNAc", "how_it_was_run": "as §1"}, "[11]": {"target": "GlcNAc(b1-3)Gal(b1-4)GlcNAc(b1-3)[GlcNAc(b1-3)Gal(b1-4)GlcNAc(b1-3)]GalNAc", "how_it_was_run": "as §1"}, "[12]": {"target": "GlcNAc(b1-3)Gal(b1-4)GlcNAc(b1-6)[Gal(b1-3)]GalNAc", "how_it_was_run": "as §1"}, "[13]": {"target": "GlcNAc(b1-3)Gal(b1-4)GlcNAc(b1-6)[GlcNAc(b1-3)Gal(b1-3)]GalNAc", "how_it_was_run": "as §1"}, "[14]": {"target": "GlcNAc(b1-3)Gal(b1-4)GlcNAc(b1-6)[GlcNAc(b1-3)]Gal(b1-4)GlcNAc", "how_it_was_run": "as §1"}, "GlcNAc(b1-3)GalNAc": {"target": "GlcNAc(b1-3)GalNAc", "how_it_was_run": "as §1"}, "GlcNAc(b1-3)Man": {"target": "GlcNAc(b1-3)Man", "how_it_was_run": "as §1"}, "[15]": {"target": "GlcNAc(b1-3)[GlcNAc(b1-4)][GlcNAc(b1-6)]GlcNAc", "how_it_was_run": "as §1"}, "[16]": {"target": "GlcNAc(b1-3)[GlcNAc(b1-6)]Gal(b1-4)GlcNAc", "how_it_was_run": "as §1"}, "[17]": {"target": "GlcNAc(b1-3)[GlcNAc(b1-6)]GalNAc", "how_it_was_run": "as §1"}, "[18]": {"target": "GlcNAc(b1-4)Gal(b1-4)GlcNAc", "how_it_was_run": "as §1"}, "GlcNAc(b1-4)GlcNAc": {"target": "GlcNAc(b1-4)GlcNAc", "how_it_was_run": "as §1"}, "[19]": {"target": "GlcNAc(b1-4)GlcNAc(b1-4)GlcNAc", "how_it_was_run": "as §1"}, "[20]": {"target": "GlcNAc(b1-4)GlcNAc(b1-4)GlcNAc(b1-4)GlcNAc(b1-4)GlcNAc", "how_it_was_run": "as §1"}}, "note": "The other results are listed elsewhere or left out."}
{"binder": "Pwp1 (Candida glabrata) (protein) MGSSHHHHHHSSGLVPRGSHMASANPISITNVCQFPDNWARTAGFQATTVRLGLTIASNTYKELLNYPGLFNFATQKATVTQPNFSISGFPFFTGLYGLTVWPINLLVELQGYFVPPESGNYTFTLQGSDDAAILFFANPSTFACGSQNDWPQPREADITVTDTLVPSRTLYLVKGVAYPIRIAYYNGSGDGKLNVSFKDPSGTTHTDWKGYVWQYSNTCSTCTYT", "values": [{"measurement": "glycan array binding signal (z-score)", "setting": "[1]", "result": -1.99}, {"measurement": "glycan array binding signal (z-score)", "setting": "[2]", "result": -0.975}, {"measurement": "glycan array binding signal (z-score)", "setting": "[3]", "result": -2.3}, {"measurement": "glycan array binding signal (z-score)", "setting": "[4]", "result": 0.437}, {"measurement": "glycan array binding signal (z-score)", "setting": "[5]", "result": -0.321}, {"measurement": "glycan array binding signal (z-score)", "setting": "[6]", "result": -2.17}, {"measurement": "glycan array binding signal (z-score)", "setting": "[7]", "result": -2.16}, {"measurement": "glycan array binding signal (z-score)", "setting": "[8]", "result": -0.567}, {"measurement": "glycan array binding signal (z-score)", "setting": "[9]", "result": -1.29}, {"measurement": "glycan array binding signal (z-score)", "setting": "[10]", "result": 1.13}, {"measurement": "glycan array binding signal (z-score)", "setting": "[11]", "result": -0.127}, {"measurement": "glycan array binding signal (z-score)", "setting": "[12]", "result": -0.991}, {"measurement": "glycan array binding signal (z-score)", "setting": "[13]", "result": -0.722}, {"measurement": "glycan array binding signal (z-score)", "setting": "[14]", "result": 0.31}, {"measurement": "glycan array binding signal (z-score)", "setting": "GlcNAc(b1-3)GalNAc", "result": -0.477}, {"measurement": "glycan array binding signal (z-score)", "setting": "GlcNAc(b1-3)Man", "result": -0.016}, {"measurement": "glycan array binding signal (z-score)", "setting": "[15]", "result": 1.27}, {"measurement": "glycan array binding signal (z-score)", "setting": "[16]", "result": -0.622}, {"measurement": "glycan array binding signal (z-score)", "setting": "[17]", "result": 0.051}, {"measurement": "glycan array binding signal (z-score)", "setting": "[18]", "result": -2.23}, {"measurement": "glycan array binding signal (z-score)", "setting": "GlcNAc(b1-4)GlcNAc", "result": 0.559}, {"measurement": "glycan array binding signal (z-score)", "setting": "[19]", "result": 0.075}, {"measurement": "glycan array binding signal (z-score)", "setting": "[20]", "result": -1.03}]}
